Source: paper PMC10075225
No constants are given. Whether binding was seen depends on the method and setting. Binding seen in cells or lysates may run through a third protein. Some binding calls cover weakened binding; strength is not graded here.

By UniProt entry, the sequences of proteins in these tests, tags left out. Where a name states a change or a piece, a line headed by the entry shows the natural chain unless it says otherwise. Chains listed by the source or under a name are the forms on record and can include a tag or linker. Residues count along the entry.
UniProt P60520: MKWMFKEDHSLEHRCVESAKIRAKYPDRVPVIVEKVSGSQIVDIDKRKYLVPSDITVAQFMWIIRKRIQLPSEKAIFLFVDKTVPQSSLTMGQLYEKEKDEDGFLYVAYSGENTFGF
UniProt O95166: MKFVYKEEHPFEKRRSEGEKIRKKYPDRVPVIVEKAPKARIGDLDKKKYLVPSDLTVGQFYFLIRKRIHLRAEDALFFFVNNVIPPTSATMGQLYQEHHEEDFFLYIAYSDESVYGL
UniProt Q9BXW4, residues 1-126: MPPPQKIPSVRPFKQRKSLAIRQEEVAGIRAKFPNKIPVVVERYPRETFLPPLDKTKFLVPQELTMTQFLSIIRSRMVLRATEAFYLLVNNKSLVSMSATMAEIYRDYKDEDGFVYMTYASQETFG
Y309A/L312A LMX1B-FLAG (O60663-1, form named): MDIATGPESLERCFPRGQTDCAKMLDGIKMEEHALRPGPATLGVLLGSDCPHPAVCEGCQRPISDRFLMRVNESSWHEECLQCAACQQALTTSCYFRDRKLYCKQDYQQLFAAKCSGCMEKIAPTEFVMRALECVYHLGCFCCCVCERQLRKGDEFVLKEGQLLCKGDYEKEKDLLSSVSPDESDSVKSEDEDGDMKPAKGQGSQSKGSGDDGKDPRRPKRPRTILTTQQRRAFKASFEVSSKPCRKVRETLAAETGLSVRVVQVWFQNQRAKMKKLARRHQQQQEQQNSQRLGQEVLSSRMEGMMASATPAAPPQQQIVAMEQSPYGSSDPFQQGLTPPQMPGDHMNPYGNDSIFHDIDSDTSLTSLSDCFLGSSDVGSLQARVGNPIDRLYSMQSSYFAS

Columns and labels:
Experiment in all cases: co-IP; GFP-TRAP beads on whole lysates (50 mM Tris-HCl, 0.5% NP40) of HEK293T cells co-transfected with GFP-tagged ATG8 constructs and LMX1A or LMX1B-FLAG (or LIR mutants); 2 h at 4°C; immunoblot
GFP-GABARAP-L2 (human) = GFP-GABARAP-L2 (human) (UniProt P60520)
GFP-GABARAP (human) = GFP-GABARAP (human) (UniProt O95166)
GFP-LC3C (human) = GFP-LC3C (human) (UniProt Q9BXW4)
GFP-LC3A (human) = GFP-LC3A (human) (UniProt Q9H492)

binding (GFP-GABARAP-L2 (human))	binding (GFP-GABARAP (human))	binding (GFP-LC3C (human))	binding (GFP-LC3A (human))	Substance
binds	binds	binds	binds	LMX1B-FLAG (from UniProt O60663-1 1-402)
binds	binds	binds	binds	Y309A/L312A LMX1B-FLAG (from UniProt O60663-1 1-402)
